Assay results as given in the supplement of paper PMC4862054.
Most entries show no effect beyond the scatter of the controls.

Experiments:
Assay in all cases: normalised response (% of control), CellTox Green; higher = less cell death (100 = DMSO, 0 = benzethonium chloride kill control)
Details in all cases: incubation time: 72 h
MDA-MB-436 = tested on: MDA-MB-436
Description: (§1)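 DSRT, 72 h incubation, CellTox Green / CellTiter-Glo readout. Signal is normalised to DMSO and benzethonium chloride controls. Value is the normalised response at the lowest tested concentration.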

CAL-148 = tested on: CAL-148
Description: as §1

BT-549 = tested on: BT-549
Description: as §1

Hs578T = tested on: Hs578T
Description: as §1

MCF-10A = tested on: MCF-10A
Description: as §1

HDQ-P1 = tested on: HDQ-P1
Description: as §1

CAL-51 = tested on: CAL-51
Description: as §1

MDA-MB-468 = tested on: MDA-MB-468
Description: as §1

DU-4475 = tested on: DU-4475
Description: as §1

CAL-120 = tested on: CAL-120
Description: as §1

MDA-MB-453 = tested on: MDA-MB-453
Description: as §1

HCC1599 = tested on: HCC1599
Description: as §1

HCC1937 = tested on: HCC1937
Description: as §1

HCC1143 = tested on: HCC1143
Description: as §1

CAL-85-1 = tested on: CAL-85-1
Description: as §1

MFM-223 = tested on: MFM-223
Description: as §1

MDA-MB-231 = tested on: MDA-MB-231
Description: as §1

BT-474 = tested on: BT-474
Description: as §1

Compound | normalised response (MDA-MB-436) | normalised response (CAL-148) | normalised response (BT-549) | normalised response (Hs578T) | normalised response (MCF-10A) | normalised response (HDQ-P1) | normalised response (CAL-51) | normalised response (MDA-MB-468) | normalised response (DU-4475) | normalised response (CAL-120) | normalised response (MDA-MB-453) | normalised response (HCC1599) | normalised response (HCC1937) | normalised response (HCC1143) | normalised response (CAL-85-1) | normalised response (MFM-223) | normalised response (MDA-MB-231) | normalised response (BT-474)
CC(C)n1cnc2c(NCCc3ccc(O)cc3)nc(-c3csc4ccccc34)nc21 [StemRegenin 1] (1 nM) | 94.4% | 99.5% | 101% | 70.5% | 106% | 90.7% | 103% | 90% | 111% | 105% | 108% | 115% | 93.9% | 117% | 99.4% | 106% | 120% | 100%
Cc1ccc(Nc2nccc(N(C)c3ccc4c(C)n(C)nc4c3)n2)cc1S(N)(=O)=O [Pazopanib] (1 nM) | 84.7% | 105% | 55.8% | 97% | 99.8% | 95.4% | 108% | 79.7% | 99.3% | 97.5% | 110% | 104% | 104% | 110% | 103% | 99.5% | 90.7% | 92.6%
Nc1ccn([C@@H]2O[C@H](CO)[C@@H](O)[C@@H]2O)c(=O)n1 [Cytarabine] (1 nM) | 82.6% | 104% | 106% | 122% | 109% | 93.3% | 102% | 99.7% | 114% | 106% | 109% | 118% | 113% | 134% | 102% | 102% | 115% | 100%
